PubChem BioAssay AID1671190 (National Center for Advancing Translational Sciences (NCATS), 2021)
Several values for one entry are separate records, joined by “and”; a condition that tells them apart may be missing. Identical values can stand only once. Among all 580,000 compounds or so, about 6,100 (1.1%) were called active. The shares of active, inactive and inconclusive entries below differ from those in the screen. Calls follow the shape of the dose curve; as a rule, active = well fitted inhibition curve with a large enough effect; inconclusive = small, poorly fitted or top-dose-only effect, or another doubt; inactive = no such curve, though single readings can be large or run the other way. Potencies of inconclusive entries are doubtful fits and often do not repeat.

By UniProt entry, the sequences of proteins in these tests, tags left out. Where a name states a change or a piece, a line headed by the entry shows the natural chain unless it says otherwise.
UniProt P18054: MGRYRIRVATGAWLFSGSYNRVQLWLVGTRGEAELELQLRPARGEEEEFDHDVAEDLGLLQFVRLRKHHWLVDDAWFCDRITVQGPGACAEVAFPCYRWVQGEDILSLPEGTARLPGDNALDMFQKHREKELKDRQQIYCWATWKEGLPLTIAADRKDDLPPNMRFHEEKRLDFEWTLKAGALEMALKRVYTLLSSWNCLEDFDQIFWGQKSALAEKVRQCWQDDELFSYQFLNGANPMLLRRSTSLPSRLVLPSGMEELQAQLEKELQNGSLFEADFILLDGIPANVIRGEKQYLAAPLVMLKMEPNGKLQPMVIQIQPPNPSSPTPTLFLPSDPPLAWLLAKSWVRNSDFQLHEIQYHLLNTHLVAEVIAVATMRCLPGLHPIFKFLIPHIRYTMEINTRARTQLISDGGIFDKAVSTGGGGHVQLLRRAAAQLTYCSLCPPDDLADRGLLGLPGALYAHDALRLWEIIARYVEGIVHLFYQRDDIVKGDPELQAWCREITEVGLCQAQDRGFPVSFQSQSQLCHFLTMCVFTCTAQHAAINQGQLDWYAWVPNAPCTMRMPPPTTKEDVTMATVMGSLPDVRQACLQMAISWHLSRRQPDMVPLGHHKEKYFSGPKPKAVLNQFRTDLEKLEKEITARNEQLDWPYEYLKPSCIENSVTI

Each molecule was assayed against Polyunsaturated fatty acid lipoxygenase ALOX12 (Homo sapiens) (UniProt P18054) (assay: Primary qHTS assay for inhibitors of human arachidonate 12S-lipoxygenase (ALOX12): Round 2). Conditions: purified 12hLO, xylenol orange hydroperoxide absorbance; activity change, negative = inhibition: at 108 µM (top of the series) unless noted.
Procedure, shortened: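 Hydroperoxide product was detected by ferrous iron/xylenol orange as the 573 to 405 nm absorbance ratio. Arachidonic acid at 40 uM (final) was turned over for 30 min at room temperature by 150 nM human 12hLO, pH 7.0 Hepes buffer, after 15 min compound preincubation.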
% is scaled to controls: 0 for no effect and ±100 for the full control effect; potency is read from the fitted curve at half-maximal effect.

SMILES	Potency	activity change, negative = inhibition
CCOC(=O)Cn1c(=O)oc2cc(S(=O)(=O)Nc3cc(Cl)ccc3OC)ccc21	inconclusive: 126 µM [inhibitor, single point]	
CN1CCN(CC(=O)N2c3ccccc3C(=O)Nc3cccnc32)CC1	inconclusive: 10 µM [inhibitor, full curve, poor fit]	
COC(=O)c1cc2c(c3c4ccccc4n(S(=O)(=O)c4ccc(OC)cc4)c13)C(=O)N(Cc1ccco1)C2	active: 39.8 µM	
CN(C)c1ncc2nc(-c3ccc(F)cc3)c(=O)n(CCC#N)c2n1	inconclusive: 70.8 µM [inhibitor, partial curve, poor fit]	
Cc1cc(C(=O)N2CCN(S(=O)(=O)c3ccc4c(c3)CCC4)CC2)c(C)n1C1CC1	inconclusive: 44.7 µM [inhibitor, partial curve, poor fit]	
Cc1cc(C(=O)NCc2cccnc2)c2ccccc2n1	inconclusive: 56.2 µM [inhibitor, partial curve, poor fit]	
CC(C)c1ccc(NC(=O)Nc2cc3sccc3n2C)cc1	inconclusive: 44.7 µM [inhibitor, partial curve]	
CCOC(=O)N1CCc2c(sc3c2C(=O)NC(c2ccc(OC)cc2)N3)C1 (stereo unspecified)	inconclusive: 70.8 µM [inhibitor, single point]	
CN1CCN(c2ccnc(-c3ccccc3C(F)(F)F)n2)CC1	inconclusive: 11.2 µM [inhibitor, full curve, poor fit]	
O=C(Nc1ccc(Br)cc1)c1ccc(Nc2cc(-c3ccccc3)ncn2)cc1		inactive: 0.353%
COc1ccc(-n2c(=O)c(-c3ccc(F)cc3)nc3cnc(N4CCOCC4)nc32)cc1	inconclusive: 89.1 µM [inhibitor, single point]	
Oc1c(N=Nc2ccccc2)sc2ccccc12		inactive: -21%
Cc1cccc(C(=O)OC2CCCN(C)C2)c1 (stereo unspecified)	inconclusive: 89.1 µM [inhibitor, single point]	
Cc1c(C(=O)O)oc2c1-c1nn(Cc3ccccc3Cl)cc1CC2	inconclusive: 44.7 µM [inhibitor, partial curve, poor fit]	
CN1CCC2(CC1)CCN(S(=O)(=O)c1ccccc1)CC2	inconclusive: 28.2 µM [inhibitor, single point]	
CCOc1ccc(NC(=O)[C@@H]2CCCN2C(=O)c2cccs2)cc1S(=O)(=O)N1CCOCC1	inconclusive: 14.1 µM [inhibitor, partial curve]	
O=C(O)c1cccc(NC(=S)N/N=C/c2ccccc2OCc2ccc(Br)cc2)c1	active: 15.8 µM	
N#C/C(=C/c1ccc(N2CCOCC2)o1)C(=O)NC1CCCCC1		inactive: -29.6%
CCc1nnc(N/N=C/c2ccc(-c3ccc([N+](=O)[O-])cc3)o2)n1N		inconclusive: -31.2% [inhibitor]
CCc1cc[n+](-c2nc([O-])sc2C=O)cc1	inconclusive: 39.8 µM [inhibitor, partial curve, poor fit]	
O=C(NC(=O)N1CCN(c2ccc([N+](=O)[O-])cn2)CC1)c1ccccc1F		inactive: 3.35%
Cc1nc(NC(=O)CSc2cc(C)c3ccccc3n2)c(Cl)cc1Cl		inactive: -16.9%

SMILES	Potency	activity change, negative = inhibition
Cc1ccc(SCc2noc(C(=O)NCC3CCCO3)c2C(=O)O)cc1C (stereo unspecified)	inconclusive: 50.1 µM [inhibitor, partial curve, poor fit]	
COc1ccc(NC(=O)N(C)C[C@H]2OCc3cnnn3CCCC(=O)N([C@@H](C)CO)C[C@H]2C)cc1	inconclusive: 28.2 µM [inhibitor, single point]	
CS(=O)(=O)Nc1cccc(-c2cc(NC=O)c3ncc(-c4ccc(F)c(Cl)c4)n3c2)c1	inconclusive: 14.1 µM [inhibitor, partial curve, poor fit]	
CCC(C)(CC(=O)Nc1ccc(NC(C)=O)cc1)Cc1nc2ccccc2s1 (stereo unspecified)		inactive: -47.9%
CCOC(=O)c1cc(-c2ccc(C)cc2)n(CC(=O)Nc2cc(C)ccc2OC)c1C	inconclusive: 112 µM [inhibitor, single point]	
CCOc1ccc(NC(=O)C2CCN(C(=O)N3CC(C)Oc4ccc(Cl)cc43)CC2)cc1 (stereo unspecified)		inactive: -0.0195%
NS(=O)(=O)c1cc(C(=O)NC2CCSc3ccccc32)ccc1Cl (stereo unspecified)	inconclusive: 25.1 µM [inhibitor, partial curve]	
COC(=O)c1ccccc1-c1ccc(C=C(C#N)C#N)o1	inconclusive: 39.8 µM [inhibitor, partial curve, poor fit]	
CN1CCC([C@@H]2CN(S(=O)(=O)c3cccc(Cl)c3)C[C@H]2C(N)=O)CC1	inconclusive: 35.5 µM [inhibitor, full curve]	
COC(=O)c1ccc(COC(=O)c2ccc(C(=O)OCc3ccc(C(=O)OC)o3)cc2)o1	inconclusive: 44.7 µM [inhibitor, partial curve, poor fit]	
O=C(O)c1cc(-c2ccccn2)nc2c(Cl)cccc12	inconclusive: 3.55 µM [inhibitor, full curve, poor fit]	
Cn1c(O)c(N=Nc2ccccc2)c2ccccc21		inactive: -71.8%
CN1C[C@H](C(=O)Nc2cccc(Cl)c2)C[C@H]1c1cccc(C(F)(F)F)c1	inconclusive: 56.2 µM [inhibitor, partial curve, poor fit]	
CC1(C)CC2CC(C)(CN2/C=C/C(=O)C(F)(F)F)C1 (stereo unspecified)	inconclusive: 50.1 µM [inhibitor, partial curve, poor fit]	
CCN(CC)C(=O)CN1C(=O)C2CC=C(Cl)CC2C1=O (stereo unspecified)	inconclusive: 2 µM [inhibitor, full curve, poor fit]	
Cc1ccc(CNC(=O)CCC(=O)N2CC3CCCN3c3ccccc32)cc1 (stereo unspecified)	inconclusive: 89.1 µM [inhibitor, partial curve, poor fit]	
Cc1ncc(CN2CCCC(CCC(=O)NCc3ccccc3F)C2)s1 (stereo unspecified)	inconclusive: 3.16 µM [inhibitor, full curve, poor fit]	
CN(C)c1cccc(C(=O)NC2CCCCCC2)c1	inconclusive: 25.1 µM [inhibitor, partial curve, poor fit]	
O=C(CN1CCCCC1)Nc1ccc(NC(=O)c2ccccc2Cl)cc1Cl		inactive: -20.2%
O=C(NCc1cccs1)c1csc2ccccc12	inconclusive: 50.1 µM [inhibitor, partial curve, poor fit]	
c1ccc(OCCN2CCN(C(c3ccccc3)c3ccccc3)CC2)cc1	inconclusive: 89.1 µM [inhibitor, single point]	
O=C(NC1CCN(Cc2ccc(F)cc2)CC1)c1cccs1	inconclusive: 89.1 µM [inhibitor, single point]	

SMILES	Potency	activity change, negative = inhibition
CCOc1ccc(N(CC(=O)NCc2ccc(OC)cc2)S(C)(=O)=O)cc1		inactive: 2.89%
O=S(=O)(Nc1ccc(O)c(Sc2nc3ccccc3s2)c1)c1ccc(Cl)cc1	inconclusive: 0.631 µM [inhibitor, full curve, poor fit]	
CN(CC(=O)Nc1cccc(Cl)c1)C1=NS(=O)(=O)c2ccccc21	inconclusive: 89.1 µM [inhibitor, single point]	
Cc1nc(-c2ccc(S(=O)(=O)NCC3CCN(C(=O)OC(C)(C)C)CC3)s2)cs1	inconclusive: 100 µM [inhibitor, single point]	
O=C(c1ccccc1F)N1CCc2nc(C3CC3)nc(-c3ccc(Cl)cc3)c2C1	active: 44.7 µM	
c1cncc(-c2nc(Sc3nnnn3C3CCCC3)c3ccccc3n2)c1		inactive: -27.2%
Cc1ccc(C2CC2c2n[nH]c(=S)n2-c2cccc(Cl)c2)cc1 (stereo unspecified)	inconclusive: 44.7 µM [inhibitor, partial curve, poor fit]	
O=C(Nc1ccc2oc(-c3cc(Br)ccc3Cl)nc2c1)c1cc2ccccc2o1	inconclusive: 89.1 µM [inhibitor, single point]	
O=c1c2ccccc2c(-c2ccc(O)cc2)nn1-c1cccc(C(F)(F)F)c1		inactive: -27.9%
Fc1ccc(C2CC(c3ccco3)=NN2c2ccccc2)cc1 (stereo unspecified)	inconclusive: 17.8 µM [inhibitor, full curve, poor fit]	
CC(C)N1C(=O)C2(CCN(C(=O)c3ccc(Cl)cc3)C2)c2ccccc21 (stereo unspecified)		inactive: -1.24% [at 6.33 µM]
CC12CCC(c3c1nc1ccccc1[n+]3[O-])C2(C)C (stereo unspecified)		inactive: -13.4%
CCC1CCCCN1C(=O)Cn1c(=O)n(-c2ccc(F)c(C)c2)c(=O)c2sccc21 (stereo unspecified)	inconclusive: 4.47 µM [inhibitor, full curve, poor fit]	
CN(C)CC(O)COc1ccc(NC(=O)Nc2ccc(F)cc2)cc1 (stereo unspecified)		inactive: -6.62%
Cc1ccc(C)c(NC(=O)CN(C)C(=O)c2cc3ccccc3oc2=O)c1	inconclusive: 5.62 µM [inhibitor, full curve, poor fit] and inconclusive: 112 µM [inhibitor, single point]	
NNc1nccc(Nc2ccccc2C(=O)O)n1		inactive: 1.5%
COc1ccc(C(=O)NCC(=O)N2CCCCCNC(=O)CC2c2ccccc2)cc1 (stereo unspecified)		inactive: 27%
FC(F)(F)c1ccccc1-c1nc(N2CCOCC2)c2ccccc2n1	inconclusive: 100 µM [inhibitor, partial curve, poor fit]	
Cc1cccc(C(=O)NC(=S)N2CCN(C(=S)NC(=O)c3cccc(C)c3)CC2)c1	inconclusive: 20 µM [inhibitor, partial curve, poor fit]	
CN(Cc1ccc(C(F)(F)F)cc1)Cc1nc2c([nH]1)c(=O)n(C)c(=O)n2C		inactive: 50.2%
CC(=O)c1ccc(NC(=O)CCc2c(C)nn(-c3ccc(N4CCOCC4)nn3)c2C)cc1	inactive	
COCCCn1cc(CN2CC(N3CCN(CCO)CC3)CS2(=O)=O)nn1 (stereo unspecified)	inconclusive: 28.2 µM [inhibitor, partial curve]	
